# The M2OR odorant receptor database
# Chains of the proteins cited; added tags and fusions are not shown. Chains listed by the source or under a name are the forms on record and can include a tag or linker.
# OR1A1 Y276F, as listed by the source, stated change not applied: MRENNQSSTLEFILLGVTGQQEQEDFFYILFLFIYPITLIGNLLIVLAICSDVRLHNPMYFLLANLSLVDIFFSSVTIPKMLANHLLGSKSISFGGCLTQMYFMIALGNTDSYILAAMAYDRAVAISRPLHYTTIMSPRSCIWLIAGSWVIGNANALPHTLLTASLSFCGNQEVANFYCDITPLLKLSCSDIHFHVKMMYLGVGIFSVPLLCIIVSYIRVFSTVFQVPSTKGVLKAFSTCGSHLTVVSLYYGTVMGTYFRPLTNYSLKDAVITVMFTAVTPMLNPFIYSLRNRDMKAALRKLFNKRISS
# OR1A1 Y251F, as listed by the source, stated change not applied: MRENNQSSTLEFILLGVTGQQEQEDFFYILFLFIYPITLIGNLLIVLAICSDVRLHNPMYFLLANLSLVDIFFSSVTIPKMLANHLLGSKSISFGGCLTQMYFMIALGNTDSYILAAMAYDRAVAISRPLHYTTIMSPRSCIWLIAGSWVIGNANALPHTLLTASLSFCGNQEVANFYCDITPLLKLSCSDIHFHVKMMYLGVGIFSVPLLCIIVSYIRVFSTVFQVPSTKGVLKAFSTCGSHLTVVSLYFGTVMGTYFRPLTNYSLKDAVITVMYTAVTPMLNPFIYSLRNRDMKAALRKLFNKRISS
# OR1A1, as listed by the source: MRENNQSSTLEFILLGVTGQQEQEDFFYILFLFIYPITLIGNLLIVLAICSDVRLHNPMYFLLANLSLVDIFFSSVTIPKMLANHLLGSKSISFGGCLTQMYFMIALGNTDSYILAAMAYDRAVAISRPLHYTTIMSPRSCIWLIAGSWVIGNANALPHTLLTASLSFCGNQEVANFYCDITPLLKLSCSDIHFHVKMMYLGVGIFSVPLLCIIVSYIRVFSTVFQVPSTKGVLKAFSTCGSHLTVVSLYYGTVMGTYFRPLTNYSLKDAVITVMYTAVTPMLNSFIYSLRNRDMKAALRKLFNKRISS
# OR1A1 Y258F, as listed by the source, stated change not applied: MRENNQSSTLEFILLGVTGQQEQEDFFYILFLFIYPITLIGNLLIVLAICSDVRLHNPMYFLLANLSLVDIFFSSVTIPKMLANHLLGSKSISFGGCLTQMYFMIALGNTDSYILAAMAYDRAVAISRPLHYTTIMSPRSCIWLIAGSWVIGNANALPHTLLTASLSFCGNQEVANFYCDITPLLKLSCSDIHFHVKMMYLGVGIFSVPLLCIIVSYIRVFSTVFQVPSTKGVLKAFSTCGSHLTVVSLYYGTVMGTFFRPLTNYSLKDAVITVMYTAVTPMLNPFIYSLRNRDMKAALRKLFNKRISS
# OR1A1 T280M, as listed by the source, stated change not applied: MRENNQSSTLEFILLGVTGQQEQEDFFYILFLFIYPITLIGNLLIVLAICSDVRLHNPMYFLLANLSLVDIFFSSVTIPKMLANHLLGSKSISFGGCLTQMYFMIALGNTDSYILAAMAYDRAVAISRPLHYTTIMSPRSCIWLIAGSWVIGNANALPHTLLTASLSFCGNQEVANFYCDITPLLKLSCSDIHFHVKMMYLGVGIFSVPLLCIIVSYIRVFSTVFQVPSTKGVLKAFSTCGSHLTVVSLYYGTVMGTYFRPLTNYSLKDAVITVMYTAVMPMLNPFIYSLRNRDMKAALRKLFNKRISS
# OR1A1 Y258M, as listed by the source, stated change not applied: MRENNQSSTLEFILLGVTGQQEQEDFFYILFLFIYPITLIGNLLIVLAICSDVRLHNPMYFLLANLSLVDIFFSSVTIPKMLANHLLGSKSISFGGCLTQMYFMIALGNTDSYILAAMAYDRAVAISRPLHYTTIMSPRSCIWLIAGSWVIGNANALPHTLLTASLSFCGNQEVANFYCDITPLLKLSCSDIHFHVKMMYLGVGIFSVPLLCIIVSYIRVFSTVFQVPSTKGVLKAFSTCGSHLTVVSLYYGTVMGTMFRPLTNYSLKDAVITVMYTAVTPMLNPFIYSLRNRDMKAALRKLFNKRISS
# OR1A1 Y250F, as listed by the source, stated change not applied: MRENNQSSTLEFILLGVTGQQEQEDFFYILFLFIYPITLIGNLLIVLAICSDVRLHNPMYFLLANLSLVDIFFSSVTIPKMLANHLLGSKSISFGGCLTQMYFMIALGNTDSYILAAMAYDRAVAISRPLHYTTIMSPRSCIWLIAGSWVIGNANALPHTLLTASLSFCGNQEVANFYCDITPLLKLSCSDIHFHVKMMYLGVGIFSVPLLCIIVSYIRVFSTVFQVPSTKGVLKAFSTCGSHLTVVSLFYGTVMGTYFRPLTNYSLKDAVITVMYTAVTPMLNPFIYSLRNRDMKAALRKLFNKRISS
# OR1A1 Y251M, as listed by the source, stated change not applied: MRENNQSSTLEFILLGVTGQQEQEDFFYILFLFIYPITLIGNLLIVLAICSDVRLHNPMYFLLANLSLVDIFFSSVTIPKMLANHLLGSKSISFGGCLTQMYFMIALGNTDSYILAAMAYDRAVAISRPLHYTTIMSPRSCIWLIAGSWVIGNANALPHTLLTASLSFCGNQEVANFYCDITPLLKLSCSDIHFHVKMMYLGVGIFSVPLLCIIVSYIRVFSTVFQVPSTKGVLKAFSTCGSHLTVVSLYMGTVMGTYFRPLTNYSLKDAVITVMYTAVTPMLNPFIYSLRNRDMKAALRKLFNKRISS
# OR1A1 Y276L, as listed by the source, stated change not applied: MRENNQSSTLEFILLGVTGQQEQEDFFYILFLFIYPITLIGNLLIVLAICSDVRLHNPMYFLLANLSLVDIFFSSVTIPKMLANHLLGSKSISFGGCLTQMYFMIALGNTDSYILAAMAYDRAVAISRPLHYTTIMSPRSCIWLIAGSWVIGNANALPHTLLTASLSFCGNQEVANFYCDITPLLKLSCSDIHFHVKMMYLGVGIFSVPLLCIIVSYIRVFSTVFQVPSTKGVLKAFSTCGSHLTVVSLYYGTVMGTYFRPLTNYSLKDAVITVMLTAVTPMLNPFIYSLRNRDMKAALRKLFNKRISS
# Residue numbers refer to the chain shown, from its start. Only a part is listed here, and it is no random draw. The calls were merged from several studies; some rest on single wells. The list shows a part of the results.
# Assays:
# Conditions in all cases: stereoisomer not certain
# OR1A1 [1] = system: T1, OR1A1
# T1 sequence (whole entry): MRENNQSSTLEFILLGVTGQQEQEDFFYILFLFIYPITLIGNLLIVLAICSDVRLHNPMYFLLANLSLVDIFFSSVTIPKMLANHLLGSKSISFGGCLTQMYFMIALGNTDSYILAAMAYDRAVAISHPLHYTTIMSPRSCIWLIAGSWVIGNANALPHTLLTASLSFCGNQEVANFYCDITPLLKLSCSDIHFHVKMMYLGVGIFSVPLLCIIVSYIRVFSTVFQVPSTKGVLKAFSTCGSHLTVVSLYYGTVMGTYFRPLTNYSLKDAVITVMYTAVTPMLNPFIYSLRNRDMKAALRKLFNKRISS
# Method in brief: (§1)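 Each receptor–molecule pair is labelled responsive or non-responsive (inactive) according to whether the original authors judged the measured signal statistically different from baseline. The data were taken from the main text and supplementary material of published papers and checked for typos and inconsistencies. Assay methods differed by source, with transient luciferase assays in mammalian cell lines being common.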
# OR1A1 [2] = system: T2, OR1A1; remark: listed apart in the source
# T2 sequence (whole entry): T1 sequence (whole entry) with H128R, V233M
# Method in brief: as §1
# OR1A1 [3] = system: T3, OR1A1; remark: listed apart in the source
# T3 sequence (whole entry): T1 sequence (whole entry) with H128R, P285S
# Method in brief: as §1
# OR1A2 (Homo sapiens) = molecular target: T4, OR1A2 (Homo sapiens) (UniProt Q9Y585)
# T4 sequence (whole entry): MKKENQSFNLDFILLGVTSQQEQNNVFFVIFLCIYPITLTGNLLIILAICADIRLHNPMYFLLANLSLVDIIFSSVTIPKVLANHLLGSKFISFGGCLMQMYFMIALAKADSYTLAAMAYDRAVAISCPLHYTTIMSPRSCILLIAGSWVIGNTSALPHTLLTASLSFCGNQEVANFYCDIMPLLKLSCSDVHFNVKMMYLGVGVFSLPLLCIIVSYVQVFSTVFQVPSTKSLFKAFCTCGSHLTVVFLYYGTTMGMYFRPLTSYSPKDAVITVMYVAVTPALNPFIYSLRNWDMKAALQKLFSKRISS
# Method in brief: as §1
# OR1A1 T280M = system: OR1A1 T280M
# Method in brief: as §1
# OR1A1 Y250F = system: OR1A1 Y250F
# Method in brief: as §1
# OR1A1 Y251F = system: OR1A1 Y251F
# Method in brief: as §1
# OR1A1 Y251M = system: OR1A1 Y251M
# Method in brief: as §1
# OR1A1 Y258F = system: OR1A1 Y258F
# Method in brief: as §1
# OR1A1 Y258M = system: OR1A1 Y258M
# Method in brief: as §1
# OR1A1 Y276F = system: OR1A1 Y276F
# Method in brief: as §1
# OR1A1 Y276L = system: OR1A1 Y276L
# Method in brief: as §1
# [4] = system: OR1A2 A108G K109N T254V V277T
# Method in brief: as §1
# OR1A2 A108G K109N T254V = system: OR1A2 A108G K109N T254V
# Method in brief: as §1
# [5] = system: OR1A2 A108G K109N V205I T254V V277T
# Method in brief: as §1
# [6] = system: OR1A2 A108G K109N V205I T254V
# Method in brief: as §1
# [7] = system: OR1A2 A108G K109N V205I V277T
# Method in brief: as §1
# OR1A2 A108G K109N V205I = system: OR1A2 A108G K109N V205I
# Method in brief: as §1
# OR1A2 A108G K109N = system: OR1A2 A108G K109N
# Method in brief: as §1
# OR1A2 A108G V205I = system: OR1A2 A108G V205I
# Method in brief: as §1
# 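Also: active if original authors judged signal statistically different from baseline.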
smiles,measurement,setting,value
CC12C=CCC1C1CCC3CC(=O)CCC3(C)C1CC2 (configuration not stated),odorant receptor agonist call,OR1A1 [1],inactive
same,odorant receptor agonist call,OR1A1 [2],inactive
same,odorant receptor agonist call,OR1A1 [3],inactive
c1cnccn1,odorant receptor agonist call,OR1A1 [1],inactive
same,odorant receptor agonist call,OR1A1 [2],inactive
same,odorant receptor agonist call,OR1A1 [3],inactive
same,odorant receptor agonist call,OR1A2 (Homo sapiens),inactive
CCCCCCCCCCC=O,odorant receptor agonist call,OR1A1 [1],inactive
same,odorant receptor agonist call,OR1A1 [2],active
same,odorant receptor agonist call,OR1A1 [3],inactive
same,odorant receptor agonist call,OR1A2 (Homo sapiens),inactive
CCCCCOC(C)=O,odorant receptor agonist call,OR1A1 [1],inactive
same,odorant receptor agonist call,OR1A1 [2],inactive
same,odorant receptor agonist call,OR1A1 [3],inactive
same,odorant receptor agonist call,OR1A2 (Homo sapiens),inactive
C=CCSCC=C,odorant receptor agonist call,OR1A1 [1],inactive
same,odorant receptor agonist call,OR1A1 [2],active
same,odorant receptor agonist call,OR1A1 [3],inactive
same,odorant receptor agonist call,OR1A2 (Homo sapiens),inactive
C=CC(C)(O)CCC=C(C)C (configuration not stated),odorant receptor agonist call,OR1A1 [1],inactive
same,odorant receptor agonist call,OR1A1 [2],inactive
same,odorant receptor agonist call,OR1A1 [3],inactive
same,odorant receptor agonist call,OR1A2 (Homo sapiens),inactive
C=C(C)C1CC=C(C)C(=O)C1 (configuration not stated),odorant receptor agonist call,OR1A1 T280M,active
same,odorant receptor agonist call,OR1A1 Y250F,active
same,odorant receptor agonist call,OR1A1 Y251F,active
same,odorant receptor agonist call,OR1A1 Y251M,inactive
same,odorant receptor agonist call,OR1A1 Y258F,inactive
same,odorant receptor agonist call,OR1A1 Y258M,inactive
same,odorant receptor agonist call,OR1A1 Y276F,active
same,odorant receptor agonist call,OR1A1 Y276L,inactive
same,odorant receptor agonist call,OR1A1 [1],active
same,odorant receptor agonist call,OR1A1 [2],active
same,odorant receptor agonist call,OR1A1 [3],active
same,odorant receptor agonist call,OR1A2 (Homo sapiens),inactive
same,odorant receptor agonist call,[4],inactive
same,odorant receptor agonist call,OR1A2 A108G K109N T254V,inactive
same,odorant receptor agonist call,[5],inactive
same,odorant receptor agonist call,[6],inactive
same,odorant receptor agonist call,[7],inactive
same,odorant receptor agonist call,OR1A2 A108G K109N V205I,inactive
same,odorant receptor agonist call,OR1A2 A108G K109N,inactive
same,odorant receptor agonist call,OR1A2 A108G V205I,inactive
COC(=O)c1ccccc1,odorant receptor agonist call,OR1A1 [1],inactive
same,odorant receptor agonist call,OR1A1 [2],inactive
same,odorant receptor agonist call,OR1A1 [3],inactive
same,odorant receptor agonist call,OR1A2 (Homo sapiens),inactive
CC(=O)OCC=C(C)CCC=C(C)C,odorant receptor agonist call,OR1A1 [1],inactive
same,odorant receptor agonist call,OR1A1 [2],inactive
same,odorant receptor agonist call,OR1A1 [3],inactive
same,odorant receptor agonist call,OR1A2 (Homo sapiens),inactive
CC(C)(C)c1ccc(CCC=O)cc1,odorant receptor agonist call,OR1A1 [1],inactive
same,odorant receptor agonist call,OR1A1 [2],inactive
same,odorant receptor agonist call,OR1A1 [3],inactive
same,odorant receptor agonist call,OR1A2 (Homo sapiens),inactive
CC1=NC(C)SC1C (configuration not stated),odorant receptor agonist call,OR1A1 [1],inactive
same,odorant receptor agonist call,OR1A1 [2],inactive
same,odorant receptor agonist call,OR1A1 [3],inactive
same,odorant receptor agonist call,OR1A2 (Homo sapiens),inactive
CCCCO,odorant receptor agonist call,OR1A1 [1],inactive
same,odorant receptor agonist call,OR1A1 [2],inactive
same,odorant receptor agonist call,OR1A1 [3],inactive
same,odorant receptor agonist call,OR1A2 (Homo sapiens),inactive
O=CCc1ccccc1,odorant receptor agonist call,OR1A1 [1],inactive
same,odorant receptor agonist call,OR1A1 [2],inactive
same,odorant receptor agonist call,OR1A1 [3],inactive
same,odorant receptor agonist call,OR1A2 (Homo sapiens),inactive
CCCCCCCOC(C)=O,odorant receptor agonist call,OR1A1 [1],inactive
same,odorant receptor agonist call,OR1A1 [2],inactive
same,odorant receptor agonist call,OR1A1 [3],inactive
same,odorant receptor agonist call,OR1A2 (Homo sapiens),inactive
CC(=O)c1ccccc1,odorant receptor agonist call,OR1A1 [1],inactive
same,odorant receptor agonist call,OR1A1 [2],active
same,odorant receptor agonist call,OR1A1 [3],inactive
same,odorant receptor agonist call,OR1A2 (Homo sapiens),inactive
CCCCCCCC=O,odorant receptor agonist call,OR1A1 [1],inactive
same,odorant receptor agonist call,OR1A1 [2],inactive
same,odorant receptor agonist call,OR1A1 [3],inactive
same,odorant receptor agonist call,OR1A2 (Homo sapiens),active
CCCCCCCCOC(C)=O,odorant receptor agonist call,OR1A1 [1],inactive
same,odorant receptor agonist call,OR1A1 [2],inactive
same,odorant receptor agonist call,OR1A1 [3],inactive
same,odorant receptor agonist call,OR1A2 (Homo sapiens),inactive
c1ccc(Oc2ccccc2)cc1,odorant receptor agonist call,OR1A1 [1],inactive
same,odorant receptor agonist call,OR1A1 [2],active
same,odorant receptor agonist call,OR1A1 [3],inactive
same,odorant receptor agonist call,OR1A2 (Homo sapiens),inactive
CCCCCCCC=CC=O,odorant receptor agonist call,OR1A1 [1],inactive
same,odorant receptor agonist call,OR1A1 [2],active
same,odorant receptor agonist call,OR1A1 [3],inactive
same,odorant receptor agonist call,OR1A2 (Homo sapiens),inactive
CCCCCC(=O)O,odorant receptor agonist call,OR1A1 [1],inactive
same,odorant receptor agonist call,OR1A1 [2],inactive
same,odorant receptor agonist call,OR1A1 [3],inactive
same,odorant receptor agonist call,OR1A2 (Homo sapiens),inactive
CC=Cc1ccc(O)c(OC)c1,odorant receptor agonist call,OR1A1 [1],active
same,odorant receptor agonist call,OR1A1 [2],active
same,odorant receptor agonist call,OR1A1 [3],inactive
same,odorant receptor agonist call,OR1A2 (Homo sapiens),inactive
CC(C)C(=O)O,odorant receptor agonist call,OR1A1 [1],inactive
same,odorant receptor agonist call,OR1A1 [2],inactive
same,odorant receptor agonist call,OR1A1 [3],inactive
same,odorant receptor agonist call,OR1A2 (Homo sapiens),inactive
CCCCCCCCCC=O,odorant receptor agonist call,OR1A1 [1],inactive
same,odorant receptor agonist call,OR1A1 [2],active
same,odorant receptor agonist call,OR1A1 [3],inactive
CCC1(O)C2(C)CCC(C2)C1(C)C (configuration not stated),odorant receptor agonist call,OR1A1 [1],inactive
same,odorant receptor agonist call,OR1A1 [2],active
same,odorant receptor agonist call,OR1A1 [3],inactive
same,odorant receptor agonist call,OR1A2 (Homo sapiens),inactive
CC(C)=CCCC(C)=CC=O,odorant receptor agonist call,OR1A1 [1],inactive
same,odorant receptor agonist call,OR1A1 [2],active
same,odorant receptor agonist call,OR1A1 [3],inactive
same,odorant receptor agonist call,OR1A2 (Homo sapiens),active
O=C1CCCCC1,odorant receptor agonist call,OR1A1 [1],inactive
same,odorant receptor agonist call,OR1A1 [2],inactive
same,odorant receptor agonist call,OR1A1 [3],inactive
same,odorant receptor agonist call,OR1A2 (Homo sapiens),inactive
COc1ccccc1O,odorant receptor agonist call,OR1A1 [1],inactive
same,odorant receptor agonist call,OR1A1 [2],active
same,odorant receptor agonist call,OR1A1 [3],inactive
same,odorant receptor agonist call,OR1A2 (Homo sapiens),inactive

# An excerpt of these results, bar-delimited.
smiles | measurement | setting | value
C=C(C)C1CC=C(C)C(=O)C1 (configuration not stated) | odorant receptor agonist call | OR1A1 Y251M | inactive
same | odorant receptor agonist call | OR1A1 Y258F | inactive
same | odorant receptor agonist call | OR1A1 Y258M | inactive
same | odorant receptor agonist call | OR1A1 Y276F | active
same | odorant receptor agonist call | OR1A1 Y276L | inactive
same | odorant receptor agonist call | OR1A1 [1] | active
same | odorant receptor agonist call | OR1A1 [2] | active
same | odorant receptor agonist call | OR1A1 [3] | active
same | odorant receptor agonist call | OR1A2 (Homo sapiens) | inactive
same | odorant receptor agonist call | [4] | inactive
same | odorant receptor agonist call | OR1A2 A108G K109N T254V | inactive
same | odorant receptor agonist call | [5] | inactive
same | odorant receptor agonist call | [6] | inactive
same | odorant receptor agonist call | [7] | inactive
same | odorant receptor agonist call | OR1A2 A108G K109N V205I | inactive
same | odorant receptor agonist call | OR1A2 A108G K109N | inactive
same | odorant receptor agonist call | OR1A2 A108G V205I | inactive
COC(=O)c1ccccc1 | odorant receptor agonist call | OR1A1 [1] | inactive
same | odorant receptor agonist call | OR1A1 [2] | inactive
same | odorant receptor agonist call | OR1A1 [3] | inactive
same | odorant receptor agonist call | OR1A2 (Homo sapiens) | inactive
CC(=O)OCC=C(C)CCC=C(C)C | odorant receptor agonist call | OR1A1 [1] | inactive
